Literature values as cited in patent US10519207B2, “Compositions and methods for treating opioid tolerance” (priority 2015, dated 2019).

Chains of the proteins cited; added tags and fusions are not shown. Residues count along the entry.
UniProt P16599, 80-235: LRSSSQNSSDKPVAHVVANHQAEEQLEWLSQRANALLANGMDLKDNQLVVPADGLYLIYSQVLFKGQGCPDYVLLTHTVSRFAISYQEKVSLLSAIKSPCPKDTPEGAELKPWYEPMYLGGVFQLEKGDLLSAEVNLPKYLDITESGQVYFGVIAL

Target: soluble TNF (solTNF) (Rattus norvegicus, UniProt P16599)
Conditions: systemic; Loyd et al. 2008; cited from earlier work

Question: Which “morphine ED50 dose” value does the source give for `CN1CC[C@]23c4c5ccc(O)c4O[C@H]2[C@@H](O)C=C[C@H]3[C@H]1C5` [morphine] here?
Answer: The value was 5 mg/kg.
